Measurements reported in PubChem BioAssay AID1224830 (NIAID, 2016)
The deposit covers about 18,000 reagents; this is a part drawn at random. In the full data, about 2,900 (16%) are marked active. 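Calls are made per well; low scores hint the gene aids the LPS response, high scores that it dampens it.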 Repeated entries: four replicate wells of each siRNA pool.

- Assay: 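Regulators of TLR4 signalling towards TNF-alpha in macrophage-like cells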 (primary screen)
- Cell system: human THP-1 monocytic leukaemia cells, TNF dual-luciferase reporter clone, PMA-differentiated to macrophage-like cells
- Reagents: siRNA pool against human genes, 50 nM
- Time to read-out: LPS for 4 h, given about 3 days after siRNA transfection
- Challenge: bacterial LPS (TLR4 ligand), 10 ng/ml
- Measurement: 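Ratio of firefly to renilla light, scaled to the plate median and expressed as a robust z-score per replicate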
- Reading the numbers: TNF reporter robust z-score: higher = stronger TNF reporter response to LPS
- Active means: 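a well is active when its z-score exceeds 2.8 or falls below -1.5; control wells carry no call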

| gene symbol | PubChem SID | TNF reporter robust z-score | call |
| --- | --- | --- | --- |
| UBR4 (GeneID 23352) | SID315455179 | 1.56 | inactive |
| UBR4 (GeneID 23352) | SID315455179 | 0.43 | inactive |
| UBR4 (GeneID 23352) | SID315455179 | -0.13 | inactive |
| UBR4 (GeneID 23352) | SID315455179 | 1.5 | inactive |
| KAAG1 (GeneID 353219) | SID315464283 | -0.37 | inactive |
| KAAG1 (GeneID 353219) | SID315464283 | 0.38 | inactive |
| KAAG1 (GeneID 353219) | SID315464283 | 0.3 | inactive |
| KAAG1 (GeneID 353219) | SID315464283 | 2.34 | inactive |
| RASSF8 (GeneID 11228) | SID315454701 | 0.89 | inactive |
| RASSF8 (GeneID 11228) | SID315454701 | 1 | inactive |
| RASSF8 (GeneID 11228) | SID315454701 | -0.15 | inactive |
| RASSF8 (GeneID 11228) | SID315454701 | 0.33 | inactive |
| KRT85 (GeneID 3891) | SID315449713 | -1.25 | inactive |
| KRT85 (GeneID 3891) | SID315449713 | -0.76 | inactive |
| KRT85 (GeneID 3891) | SID315449713 | -0.85 | inactive |
| KRT85 (GeneID 3891) | SID315449713 | -1.04 | inactive |
| ZNRF4 (GeneID 148066) | SID315462360 | -1.55 | active |
| ZNRF4 (GeneID 148066) | SID315462360 | -1.06 | inactive |
| ZNRF4 (GeneID 148066) | SID315462360 | -0.1 | inactive |
| ZNRF4 (GeneID 148066) | SID315462360 | 1.19 | inactive |
| SEC31A (GeneID 22872) | SID315454834 | 2.74 | inactive |
| SEC31A (GeneID 22872) | SID315454834 | 4.9 | active |
| SEC31A (GeneID 22872) | SID315454834 | 2.15 | inactive |
| SEC31A (GeneID 22872) | SID315454834 | -0.41 | inactive |
| PNPLA6 (GeneID 10908) | SID315454446 | -0.73 | inactive |
| PNPLA6 (GeneID 10908) | SID315454446 | -0.65 | inactive |
| PNPLA6 (GeneID 10908) | SID315454446 | -0.4 | inactive |
| PNPLA6 (GeneID 10908) | SID315454446 | -0.85 | inactive |
| BIRC7 (GeneID 79444) | SID315459286 | -1.4 | inactive |
| BIRC7 (GeneID 79444) | SID315459286 | 0.74 | inactive |
| BIRC7 (GeneID 79444) | SID315459286 | -0.31 | inactive |
| BIRC7 (GeneID 79444) | SID315459286 | 0.24 | inactive |
| PHF8 (GeneID 23133) | SID315455014 | 0.22 | inactive |
| PHF8 (GeneID 23133) | SID315455014 | -0.99 | inactive |
| PHF8 (GeneID 23133) | SID315455014 | 3.65 | active |
| PHF8 (GeneID 23133) | SID315455014 | -0.33 | inactive |
| BNIP2 (GeneID 663) | SID315447573 | -0.19 | inactive |
| BNIP2 (GeneID 663) | SID315447573 | -1.19 | inactive |
| BNIP2 (GeneID 663) | SID315447573 | -0.59 | inactive |
| BNIP2 (GeneID 663) | SID315447573 | -0.45 | inactive |
| TSPAN31 (GeneID 6302) | SID315451293 | -0.5 | inactive |
| TSPAN31 (GeneID 6302) | SID315451293 | -1.31 | inactive |
| TSPAN31 (GeneID 6302) | SID315451293 | -1.21 | inactive |
| TSPAN31 (GeneID 6302) | SID315451293 | -0.88 | inactive |
| MSLNL (GeneID 401827) | SID315464803 | -0.1 | inactive |
| MSLNL (GeneID 401827) | SID315464803 | -0.67 | inactive |
| MSLNL (GeneID 401827) | SID315464803 | 0.78 | inactive |
| MSLNL (GeneID 401827) | SID315464803 | 0.56 | inactive |
| HYAL4 (GeneID 23553) | SID315455326 | 0.86 | inactive |
| HYAL4 (GeneID 23553) | SID315455326 | 1.44 | inactive |
| HYAL4 (GeneID 23553) | SID315455326 | 0.68 | inactive |
| HYAL4 (GeneID 23553) | SID315455326 | 2.18 | inactive |
| USH2A (GeneID 7399) | SID315452092 | 0.46 | inactive |
| USH2A (GeneID 7399) | SID315452092 | 0.87 | inactive |
| USH2A (GeneID 7399) | SID315452092 | -0.77 | inactive |
| USH2A (GeneID 7399) | SID315452092 | -0.16 | inactive |
| R3HDM1 (GeneID 23518) | SID315455295 | -0.76 | inactive |
| R3HDM1 (GeneID 23518) | SID315455295 | -1.72 | active |
| R3HDM1 (GeneID 23518) | SID315455295 | -1.92 | active |
| R3HDM1 (GeneID 23518) | SID315455295 | -1.84 | active |
| GABRG1 (GeneID 2565) | SID315448807 | -0.52 | inactive |
| GABRG1 (GeneID 2565) | SID315448807 | 0.49 | inactive |
| GABRG1 (GeneID 2565) | SID315448807 | -0.11 | inactive |
| GABRG1 (GeneID 2565) | SID315448807 | -0.16 | inactive |
| CALM1 (GeneID 801) | SID315447675 | -0.33 | inactive |
| CALM1 (GeneID 801) | SID315447675 | -0.39 | inactive |
| CALM1 (GeneID 801) | SID315447675 | -0.57 | inactive |
| CALM1 (GeneID 801) | SID315447675 | -1.08 | inactive |
| TMED6 (GeneID 146456) | SID315462280 | -1.02 | inactive |
| TMED6 (GeneID 146456) | SID315462280 | -0.63 | inactive |
| TMED6 (GeneID 146456) | SID315462280 | -1.03 | inactive |
| TMED6 (GeneID 146456) | SID315462280 | -0.58 | inactive |
| OR11H1 (GeneID 81061) | SID315459848 | -0.33 | inactive |
| OR11H1 (GeneID 81061) | SID315459848 | -0.58 | inactive |
| OR11H1 (GeneID 81061) | SID315459848 | -0.98 | inactive |
| OR11H1 (GeneID 81061) | SID315459848 | -0.35 | inactive |
